Measurements: PMC9769811
Results are given in words; binding and its absence hold for the method and conditions named. Binding seen in cells or lysates may run through a third protein. For some assays here: A result given as binding can be weak or reduced; the word gives no strength. Tags and fused reporters may be left off the sequences shown.

Experiments:
[1] = target: MfpB, M-PFC fusion from pUAB300-mfpB (M. smegmatis); assay: split reporter
[2] = target: ATPase domain of Topo N, M-PFC fusion from pUAB300-Topo N (M. smegmatis); assay: split reporter

B1: Mycobacterium fluoroquinolone resistance protein A (MfpA), M-PFC fusion from pUAB400-mfpA (protein, UniProt A0QSY0 1-191)
chain: MRIGANGDETVWADEEFAGRDFRDEDLSRIRTERVVFTECDFSGVDLSESEHHGSAFRNCTFRRSTIWHSTFTNCSLLGSVFTECRIRPVTFVECDFTLAVLGGCDLRAVDLSDCRLREVSLVGADLRKAVLRRADLTGSRVQDARLEEADLRGTRVDPTFWTTAKVRGAKIDIEQALAYAAAHGLAVHGG
Question: For B1, which binding [1] is on record?
Answer: binds

Question: And the binding [2]?
Answer: no binding
